Results published in patent publication US20190085095A1.
These are yes or no findings as the source states them, for the method shown. Some binding calls cover weakened binding; strength is not graded here.

Chains of the proteins cited; added tags and fusions are not shown. Residues count along the entry.
UniProt P01031, residues 19-1676: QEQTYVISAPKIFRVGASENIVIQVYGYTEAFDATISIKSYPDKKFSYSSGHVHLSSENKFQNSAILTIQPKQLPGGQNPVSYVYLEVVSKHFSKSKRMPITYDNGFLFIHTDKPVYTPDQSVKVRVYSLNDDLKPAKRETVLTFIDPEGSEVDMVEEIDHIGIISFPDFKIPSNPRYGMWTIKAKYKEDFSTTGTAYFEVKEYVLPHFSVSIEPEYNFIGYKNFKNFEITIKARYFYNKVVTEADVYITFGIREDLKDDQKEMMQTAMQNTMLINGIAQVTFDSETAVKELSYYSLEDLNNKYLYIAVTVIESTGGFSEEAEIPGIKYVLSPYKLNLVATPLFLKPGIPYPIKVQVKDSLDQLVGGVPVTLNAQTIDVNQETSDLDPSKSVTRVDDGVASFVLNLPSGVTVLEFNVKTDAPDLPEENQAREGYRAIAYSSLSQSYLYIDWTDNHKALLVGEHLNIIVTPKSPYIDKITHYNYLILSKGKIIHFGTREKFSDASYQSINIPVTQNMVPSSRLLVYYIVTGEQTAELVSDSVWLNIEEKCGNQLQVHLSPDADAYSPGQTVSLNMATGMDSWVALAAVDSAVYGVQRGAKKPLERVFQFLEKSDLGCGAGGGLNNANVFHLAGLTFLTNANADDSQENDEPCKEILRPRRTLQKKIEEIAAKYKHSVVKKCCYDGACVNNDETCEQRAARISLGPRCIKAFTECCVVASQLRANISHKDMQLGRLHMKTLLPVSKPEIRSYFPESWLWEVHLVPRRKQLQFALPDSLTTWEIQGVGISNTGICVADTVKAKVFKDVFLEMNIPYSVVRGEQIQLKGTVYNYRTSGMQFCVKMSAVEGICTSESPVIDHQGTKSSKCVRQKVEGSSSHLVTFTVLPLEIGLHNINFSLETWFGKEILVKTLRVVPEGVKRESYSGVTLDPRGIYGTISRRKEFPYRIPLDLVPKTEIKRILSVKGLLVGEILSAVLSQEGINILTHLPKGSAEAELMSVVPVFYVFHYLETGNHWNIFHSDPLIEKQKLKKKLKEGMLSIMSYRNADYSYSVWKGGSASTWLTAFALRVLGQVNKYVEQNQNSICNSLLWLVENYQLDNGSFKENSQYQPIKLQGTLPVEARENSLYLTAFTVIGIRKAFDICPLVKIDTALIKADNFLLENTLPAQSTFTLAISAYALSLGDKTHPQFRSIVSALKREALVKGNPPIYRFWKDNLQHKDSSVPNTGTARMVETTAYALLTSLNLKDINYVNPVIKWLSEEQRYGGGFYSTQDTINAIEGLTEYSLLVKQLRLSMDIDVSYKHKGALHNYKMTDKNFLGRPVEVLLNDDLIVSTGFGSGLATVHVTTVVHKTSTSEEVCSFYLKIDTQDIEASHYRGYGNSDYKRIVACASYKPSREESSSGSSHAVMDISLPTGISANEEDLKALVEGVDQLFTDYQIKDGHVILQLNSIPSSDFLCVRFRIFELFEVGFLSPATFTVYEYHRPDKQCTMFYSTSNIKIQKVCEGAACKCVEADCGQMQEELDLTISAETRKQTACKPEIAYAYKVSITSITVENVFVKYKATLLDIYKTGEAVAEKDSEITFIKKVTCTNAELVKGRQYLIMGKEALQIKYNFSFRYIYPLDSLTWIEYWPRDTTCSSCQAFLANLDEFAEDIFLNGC

Assays:
[1] = molecular target: human complement component 5 (C5) (human) (UniProt P01031); test: SPR (Biacore), binding to hC5 over time at pH 5.5; antibody with IgG2 Fc
[2] = molecular target: human complement component 5 (C5) (human) (UniProt P01031); test: binding curves to hC5 at pH 5.5 (FIG. 14)

B1: Antibody D (antibody, human IgG2, kappa)
heavy: QVQLVQSGAEVKKPGASVKVSCKASGYIFSNYWIQWVRQAPGQGLEWMGEILPGSGSTEYTENFKDRVTMTRDTSTSTVYMELSSLRSEDTAVYYCARYHFGSSPNWYFDVWGQGTLVTVSSASTKGPSVFPLAPCSRSTSESTAALGCLVKDYFPEPVTVSWNSGALTSGVHTFPAVLQSSGLYSLSSVVTVPSSNFGTQTYTCNVDHKPSNTKVDKTVERKCCVECPPCPAPPVAGPSVFLFPPKPKDTLMISRTPEVTCVVVDVSHEDPEVQFNWYVDGVEVHNAKTKPREEQFNSTFRVVSVLTVVHQDWLNGKEYKCKVSNKGLPAPIEKTISKTKGQPREPQVYTLPPSREEMTKNQVSLTCLVKGFYPSDIAVEWESNGQPENNYKTTPPMLDSDGSFFLYSKLTVDKSRWQQGNVFSCSVMHEALHNHYTQKSLSLSPGK
light: DIQMTQSPSSLSASVGDRVTITCGASENIYGALNWYQQKPGKAPKLLIYGATNLADGVPSRFSGSGSGTDFTLTISSLQPEDFATYYCQNVLHTPLTFGQGTKVEIKRTVAAPSVFIFPPSDEQLKSGTASVVCLLNNFYPREAKVQWKVDNALQSGNSQESVTEQDSKDSTYSLSSTLTLSKADYEKHKVYACEVTHQGLSSPVTKSFNRGEC
[1]
  binding: binds
[2]
  binding: binds
